PubChem BioAssay AID485314 (National Center for Advancing Translational Sciences (NCATS), 2010)
In all, about 340,000 compounds went through this assay and about 4,500 (1.3%) were called active. The shares of active, inactive and inconclusive entries below differ from those in the screen. Calls come from the whole dose curve; as a rule, active = well fitted inhibition curve with a large enough effect; inconclusive = small, poorly fitted or top-dose-only effect, or another doubt; inactive = no such curve, though single readings can be large or run the other way. Potencies of inconclusive entries are doubtful fits and often do not repeat.
% is set by controls: 0 for no effect and ±100 for the full control effect; potency is the fitted concentration of half-maximal effect.

What follows are molecules tested against DNA polymerase beta (Homo sapiens) (UniProt P06746) (assay: qHTS Assay for Inhibitors of DNA Polymerase Beta). Details: Pol beta primer extension/strand displacement, fluorescence kinetic; activity change, negative = inhibition: at 114 µM (top of the series).
Summary of the method: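 Preincubation: enzyme (10 nM) with compound, 15 min, RT. Reaction: substrate added to 50 nM final. Reads: 0 and 10 min. Analysis: normalized, Hill fit.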
In the case of `CCCOC(=O)c1c(NC(=O)c2cc3ccccc3c(=O)o2)sc2c1CCC(C)C2` (centres undefined), the Potency is reported as inconclusive: 0.126 µM [inhibitor, full curve, poor fit].
In the case of `COC(=O)c1sc2cccc(F)c2c1S(=O)(=O)N1CCN(c2cccc(C)c2)C(C)C1` (centres undefined), the Potency is reported as “inactive”.
`Cc1ccc(-c2csc(NC(=O)c3ccno3)n2)cc1` was tested, and the Potency was active: 14.1 µM.
For `CN(C)c1ccc(C2CC(=O)OC3=C2C(=O)CC(C)(C)C3)cc1` (centres undefined), the Potency was inconclusive: 15.8 µM [inhibitor, full curve, poor fit].
In the case of `O=C1CCC/C(=N/NC(=O)c2ccc(CN3c4cccc5cccc(c45)S3(=O)=O)cc2)C1`, the Potency is reported as inconclusive: 0.141 µM [inhibitor, full curve, poor fit].
With `CCOC(=O)CCc1c(C)nc2cc(-c3cc(OC)cc(OC)c3)[nH]n2c1=O` the Potency was active: 28.2 µM.
For `COc1ccccc1C(=O)N/N=C(\C)CC(=O)Nc1ccccn1`, the Potency was inconclusive: 89.1 µM [inhibitor, single point].
With `COc1cccc(N2CC(C(=O)Nc3nnc(SCC(=O)NCC4CCCO4)s3)CC2=O)c1` (centres undefined) the Potency was inconclusive: 0.501 µM [inhibitor, full curve, poor fit].
For `CCOC(=O)c1c(NC(=O)C2c3ccccc3Oc3ccccc32)sc(C(=O)N(CC)CC)c1C`, the Potency was inconclusive: 17.8 µM [inhibitor, single point].
For `O=C(NC1CCC(O)CC1)c1ccc(-c2ccc([N+](=O)[O-])cc2)o1` (centres undefined), the activity change, negative = inhibition was inconclusive: -32% [inhibitor].
In the case of `O=C(CSc1cccc(C(F)(F)F)c1)NC(=O)c1ccccc1`, the Potency is reported as inconclusive: 3.16 µM [inhibitor, single point].
With `CC(Oc1ccc(Cl)cc1Cl)c1ccnc2nc(N3CCOCC3)nn12` (centres undefined) the Potency was inconclusive: 0.562 µM [inhibitor, full curve, poor fit].
For `Cc1ccc(NC2CC(=O)N(Cc3ccccc3)C2=O)cc1` (centres undefined), the Potency was inconclusive: 79.4 µM [inhibitor, partial curve].
In the case of `COc1ccc(-c2nc(N)nc(C)c2Oc2ccccc2Br)c(O)c1`, the Potency is reported as inconclusive: 56.2 µM [inhibitor, partial curve].
For `O=C1C(Cl)=C(N2CCOCC2)C(=O)N1CCc1ccccc1`, the Potency was inconclusive: 89.1 µM [inhibitor, single point].
`N#Cc1c(-c2ccccc2)nc(SCc2cccc(C(F)(F)F)c2)[nH]c1=O` was tested, and the Potency was active: 79.4 µM.
With `Cc1cc(NC(=O)c2ccccc2)ccc1NC(=O)Cc1ccccc1` the Potency was inconclusive: 79.4 µM [inhibitor, single point].
For `CC(=O)Nc1ccc(S(=O)(=O)N(C)Cc2ccccc2)cc1`, the Potency was “inactive”.
`CCN1C(=O)c2ccccc2Sc2ccc(NC(=O)Nc3cccc([N+](=O)[O-])c3C)cc21` was tested, and the Potency was “inactive”.
For `CC1CC(C)CN(C(=O)c2ccccc2Nc2ccc(SC(F)F)cc2)C1` (centres undefined), the Potency was “inactive”.
With `CCOC(=O)c1c(C)[nH]c(C)c1S(=O)(=O)N1CCC(C(=O)NCc2cccc(OC)c2)CC1` the Potency was “inactive”.
For `Cc1ccc(N2NC(=O)/C(=C/c3ccc(-c4ccc(Cl)c(C(=O)O)c4)o3)C2=O)cc1C`, the Potency was “inactive”.
With `C=CCn1c(CCNC(=O)c2ccccc2F)nnc1SCC(=O)Nc1ccccc1F` the Potency was inconclusive: 0.891 µM [inhibitor, full curve, poor fit].
For `COC(=O)N/N=C/c1cc(Br)ccc1O`, the Potency was active: 15.8 µM.
With `NNc1nccc(Nc2ccccc2C(=O)O)n1` the Potency was inconclusive: 17.8 µM [inhibitor, full curve].
For `COc1ccc(-c2noc(-c3ccc(NCc4cccnc4)c([N+](=O)[O-])c3)n2)cc1OC`, the Potency was inconclusive: 35.5 µM [inhibitor, partial curve].
In the case of `CCOc1cc(-c2c(C#N)c(N)nc3c2CCCC3)ccc1O`, the Potency is reported as inconclusive: 89.1 µM [inhibitor, partial curve].
In the case of `Cc1ccc(S(=O)(=O)N2CCCC2C(=O)O)s1` (centres undefined), the Potency is reported as inconclusive: 44.7 µM [inhibitor, partial curve, poor fit].
In the case of `COC(=O)c1onc(-c2c(Cl)cccc2Cl)c1C(=O)OC`, the Potency is reported as inconclusive: 89.1 µM [inhibitor, single point].
`COc1ccc(-c2csc3ncnc(Nc4ccc(O)cc4)c23)cc1` was tested, and the Potency was “inactive”.
In the case of `O=C(NCc1cccs1)c1csc2ccccc12`, the Potency is reported as inconclusive: 5.01 µM [inhibitor, full curve].
For `O=C(Nc1ccc2oc(-c3cc(Br)ccc3Cl)nc2c1)c1cc2ccccc2o1`, the Potency was active: 2.82 µM.
With `NS(=O)(=O)c1cc(C(=O)NC2CCSc3ccccc32)ccc1Cl` (centres undefined) the Potency was active: 0.316 µM.
For `Cn1c(O)c(N=Nc2ccccc2)c2ccccc21`, the activity change, negative = inhibition was inconclusive: -43.4% [inhibitor].
For `Cc1ccc(CNC(=O)Cn2cc(S(=O)(=O)Cc3ccccc3Cl)c3ccccc32)cc1`, the Potency was inconclusive: 39.8 µM [inhibitor, partial curve].
In the case of `Cc1ccc2c(c1)nnn2C1CCN(S(=O)(=O)c2ccc(C(=O)N3CC(C)CC(C)C3)cc2)CC1` (centres undefined), the Potency is reported as inconclusive: 89.1 µM [inhibitor, single point].
With `O=C(Nc1ccc(S(=O)(=O)NCC2CCCO2)cc1)c1cnccn1` (centres undefined) the Potency was inconclusive: 79.4 µM [inhibitor, single point].
In the case of `O=C(N/N=C/C(Cl)=C/c1ccc([N+](=O)[O-])cc1)C(=O)Nc1ccccc1C(=O)O`, the Potency is reported as active: 20 µM.
With `O=C(c1ccc([N+](=O)[O-])cc1[N+](=O)[O-])N1CCCC1` the Potency was inconclusive: 1 µM [inhibitor, full curve, poor fit].
`O=C(COC(=O)/C=C/c1ccco1)Nc1ccc(F)cc1Cl` was tested, and the Potency was active: 22.4 µM.
`Fc1cccc(F)c1/C=N/N1CCOCC1` was tested, and the Potency was inconclusive: 100 µM [inhibitor, single point].
With `CN(C)C(CNC(=O)c1ccc(S(=O)(=O)Nc2ccccc2F)cc1)c1ccccc1` (centres undefined) the Potency was inconclusive: 0.282 µM [inhibitor, full curve, poor fit].
In the case of `O=C(COc1ccc(Cl)cc1)NNC(=O)CSc1nncs1`, the Potency is reported as inconclusive: 0.126 µM [inhibitor, full curve, poor fit].
In the case of `CCN(CC(=O)NCc1cccs1)S(=O)(=O)c1ccc([N+](=O)[O-])cc1`, the Potency is reported as inconclusive: 5.62 µM [inhibitor, full curve, poor fit].
